From PubChem BioAssay AID1347423 (Functional Genomics Laboratory (NCATS/FGL), 2020)
The whole screen tested about 52,000 sequences, of which about 210 (0.4%) were called active.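 How the source made its calls: active means gene whose silencing raises cell survival under the drug, median off-target-corrected z-score across its silencing RNAs 2 or more; inactive means the rest.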 This is one part of the list.

Experiment: Resistance to Poly (ADP-Ribose) Polymerase inhibitor: Gene Identification via Genome-wide siRNA Screen
Conditions: mouse BRCA2 R2336H ES cells, olaparib, CellTiter-Glo viability; active compounds read high
Method in brief: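 Genome-wide siRNA screen (3 siRNAs/gene, 20 nM) in mouse ES cells carrying hypomorphic BRCA2 R2336H; olaparib 500 nM added 48 h post-transfection, CellTiter-Glo viability 72 h later. Normalized to plate-median negative control; MAD z-scores, gene median, seed-adjusted.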
In the case of GGAUGCUUGGCUGAAUCACTT against Smyd1, the z-score is reported as inactive: 0.0932.
For GCCAGUUGGUUACUAUGGATT against Tax1bp3, the z-score was inactive: 2.54.
For GGAAAGGAACAAAGAAUCATT against Cpb2, the z-score was inactive: 1.65.
With “GGAAGUUUUGGGAGUGUGUTT against B230120H23Rik” the z-score was inactive: -0.52.
For GGAGAAGAAGAAAACGUACTT against Mmp10, the z-score was inactive: 0.19.
For GGUAAACAUUGCUACUUUGTT against Mpdz, the z-score was inactive: -0.383.
In the case of “GGCCAAAAUUAAAAAGGCCTT against 2810405I11Rik”, the z-score is reported as inactive: 1.
In the case of “GCUGAACAACGAUUGCUCATT against 2700050C12Rik”, the z-score is reported as inactive: -0.163.
With CCUUGAACGAGAGUGCAUUTT against Pros1 the z-score was inactive: 0.786.
For GCCGCCACAGAAAAAGUCUTT against Dtx3l, the z-score was inactive: -1.27.
With CCUGUGAAAUACCAGCGUGTT against BC003885 the z-score was inactive: 1.31.
With GGAAGUCAUCUCCUACUAUTT against Lix1 the z-score was inactive: -0.467.
For CGCCUUCAUUAUGGUGACGTT against Pigc, the z-score was inactive: -0.675.
In the case of CCUGUUGUGCAGAUGGUUUTT against Rab28, the z-score is reported as inactive: 0.233.
For GGGCUUCUUCUGCUAUGACTT against BC018242, the z-score was inactive: -1.87.
With GAUAAAGGAUACCUCAGUGTT against Scrt1 the z-score was inactive: -0.214.
With CCAACAUAUUGUUCGUCGGTT against Slc13a2 the z-score was inactive: 0.156.
For CCUCAUUUUAGUCGUAGAATT against Syt11, the z-score was inactive: 1.05.
In the case of GGGAACAGAAGUCAAGAGATT against LOC406217, the z-score is reported as inactive: 1.06.
In the case of CCAUUCUUAUUGUUGAGAATT against Nek9, the z-score is reported as inactive: -0.576.
For GCAUUCCUCAUACUUACUGTT against Olfr671, the z-score was inactive: 0.491.
With “GCUCUUUAUCCUAAUCCGGTT against 2310075G12Rik” the z-score was inactive: 0.366.
With GGCCCUUCAGCAGAAAAAUTT against Pcoln3 the z-score was inactive: -0.776.
In the case of “GCUAUGCAGUGACCACACUTT against C130046B21Rik”, the z-score is reported as inactive: -0.738.
For “GGAGAAAGAGCCUUUAAGGTT against 1200003C23Rik”, the z-score was inactive: 0.703.
For GACCUACAAGAAGUUCGGCTT against Nkx2-4, the z-score was inactive: 1.1.
In the case of GGUGGCACUGAUGGAAUUGTT against Hsd17b12, the z-score is reported as inactive: 0.273.
With “GCCUUCUUAAGCUCUGAGCTT against 2610209N15Rik” the z-score was inactive: -0.853.
For “CCAAUUAGUCACUCUUAGATT against 1300002F13Rik”, the z-score was inactive: -0.202.
With GGAGAGAAUCAGAGAGAACTT against Akr1c18 the z-score was inactive: 0.067.
With GGAUAAAAACUACAAAGAGTT against Tyki the z-score was inactive: 1.06.
With GGAUCAAACACAAUCCUAATT against V1rd7 the z-score was inactive: -0.474.
With “GGUGUGUGAGAUUAAAAGCTT against 9130231C15Rik” the z-score was inactive: 0.827.
With GGGCAUACAUAUAACCUAUTT against Plekhc1 the z-score was inactive: 0.785.
For GCCAUCUACUCUUUAAAUATT against Pdha1, the z-score was inactive: -0.502.
In the case of GGGAAAGUGUUCUCACUCATT against Zfp111, the z-score is reported as inactive: 1.08.
For CGAACUAAGCCAAUCUCUGTT against Pcdha2, the z-score was inactive: -0.561.
With GGCAAUGCACUUAUAACUCTT against Olfr118 the z-score was inactive: 1.29.
In the case of GGAGCACCAGAGUUAAAACTT against Lu, the z-score is reported as inactive: 1.22.
In the case of “CGUGGUCGUGAGAUGUUUGTT against 3110023E09Rik”, the z-score is reported as inactive: 0.604.
In the case of CCUGAUUGACGACAGUAAGTT against Mcrs1, the z-score is reported as inactive: 0.351.
With CCCUAGUUUGAAUGUAAUATT against Npm2 the z-score was inactive: -0.553.
With GGAAGUGGACCUGAGUGACTT against Taf6 the z-score was inactive: 0.0803.
In the case of CCUCACUGUUUUACACCUUTT against Olfr1152, the z-score is reported as inactive: -0.188.
With GGAAACUGAAGGAGGUACGTT against Ush1c the z-score was inactive: -0.485.
In the case of GGCCGACCAGCUGUAUAAGTT against Pdha2, the z-score is reported as inactive: 2.04.
In the case of GGAAUGCUACAACUCAAAATT against Ptk2, the z-score is reported as inactive: 0.648.
With GGUCACUGUAAAAUGAACCTT against Odf2 the z-score was inactive: 0.745.
With GCCAGUUAGAUGAAUUUCATT against C80879 the z-score was inactive: -2.84.
For “GCUGGUAGGAAGUCCAAAATT against 2310008H09Rik”, the z-score was inactive: -1.07.
For GCUCCUCGUUCCACACAUCTT against Alox12, the z-score was inactive: 0.136.
With GGAAGAUUUACAGAUUCAATT against Lta4h the z-score was inactive: 1.63.
For “GGAACACAUGCUAAGCAGATT against 1110032A03Rik”, the z-score was inactive: -0.719.
For GGCAUUACCAUUGGAUCUGTT against Mgl2, the z-score was inactive: -0.973.
In the case of CCCAAAUUGAAAGGGCAGGTT against LOC271048, the z-score is reported as inactive: 0.457.
For GGGAAUGGCUUGAUUCUGUTT against Olfr609, the z-score was inactive: 0.522.
In the case of CCCUCAGUUGUACCAUCAATT against Olfr298, the z-score is reported as inactive: 0.31.
With CCAACAAUUCUGCCAAGACTT against Arrb2 the z-score was inactive: -2.41.
For “GGCUAAGAACUCUAAGAAATT against 4732427B05”, the z-score was inactive: -2.93.
With GGAAAUCGAGGACUUAUACTT against Prkwnk4 the z-score was inactive: 0.139.
In the case of GGCAGGCAAAAAGCCUUUUTT against Olfr1022, the z-score is reported as inactive: 0.0393.
For “GCAGGUUGAACGACAGCGUTT against 2410012M04Rik”, the z-score was inactive: -0.458.
For “GGUUCACAGAAAUUGAGGUTT against 2810048G17Rik”, the z-score was inactive: -0.246.
In the case of GCUAUCCUUUCUUGCUGCATT against Tlr12, the z-score is reported as inactive: -1.34.
For GGAAAUACAAAUGAGUUGATT against Txndc9, the z-score was inactive: 0.152.
With GGCCUUUCUCACACUGCAUTT against Fto the z-score was inactive: -0.634.
In the case of GGAAUCUGCAUGGUUUGCCTT against Vgll4, the z-score is reported as inactive: 0.656.
In the case of “GGAUCUAAGCCUGUUGUGATT against 6030449J21”, the z-score is reported as inactive: -0.656.
With GGAGACGAGGUCAUCAUCATT against Ccbl1 the z-score was inactive: 0.326.
For GGACAACUAGCAGAUGGGATT against L3mbtl2, the z-score was inactive: -1.12.
For GCUGGCUGUUGGAUAAGUGTT against Olfr1112, the z-score was inactive: -1.92.
For GGCGAGACCAUCCAUAUGUTT against Dusp19, the z-score was inactive: 0.168.
In the case of GGGUCAGAAUUUUUGCUUCTT against Olfr328, the z-score is reported as inactive: -0.415.
For GCAUAGCUAACUCAGCAUATT against Map2k2, the z-score was inactive: -0.155.
In the case of GGCCUUUAGUUUAAUCCUATT against Ubxd4, the z-score is reported as inactive: 0.533.
For GCUCAAUUUACAAAAGCCCTT against Pik3c2a, the z-score was inactive: 0.824.
With GGAAACUGUUUAGGAAUUGTT against Adpn the z-score was inactive: 0.91.
With GGACAAACACUGUUUAUUCTT against Phf8 the z-score was inactive: 0.923.
For GCAAGGUCAAUCAAUCGUATT against Trar1, the z-score was inactive: 0.721.
In the case of GUGACCACUUUGCCACUUGTT against Olfr1259, the z-score is reported as inactive: -0.701.
In the case of GGCCAAAUUUUCCUUCCAATT against Cast1, the z-score is reported as inactive: 0.727.
With GGUAGAGUCUAACACGUGGTT against Ctsw the z-score was inactive: 0.0282.
In the case of “GGGAAAAUCCAGCCAUAGUTT against 4922504M18Rik”, the z-score is reported as inactive: -1.24.
With GGAUACCUUGCCUUUCUUATT against Bmpr1a the z-score was inactive: 0.0591.
With GGAAAGCGGUAUGGCAUGGTT against Oraov1 the z-score was inactive: 0.603.
With GGUAAAACAGGUUUAGAGATT against Slc1a4 the z-score was inactive: 2.03.
For GCUUAAUGAGGAAAUACCATT against Ptpn12, the z-score was inactive: 0.654.
With GGUGCUCUGAGGAACUCCATT against Olfr1491 the z-score was inactive: -0.0168.
With GCCAAAUGAGUCAGAUACUTT against Ak3l the z-score was inactive: 1.46.
In the case of CGCAAAACCGGGUCAAAUCTT against F9, the z-score is reported as inactive: 1.7.
In the case of GGAGGAGAAGAAGAAGGCCTT against AA407659, the z-score is reported as inactive: 0.37.
In the case of GCCCAAGAGUUGAGAUUCUTT against Kcnj14, the z-score is reported as inactive: 0.00246.
In the case of GGUUUUUCAAUUAAACGGATT against Cd63, the z-score is reported as inactive: -0.563.
With GCUCCAGAUGUUCAGAGCUTT against Fbxo9 the z-score was inactive: -0.242.
With GGUGUUCGACUUUGAGCGCTT against Smad6 the z-score was inactive: 1.04.
For GGGACUUGUCAGGUUUCUATT against BC002216, the z-score was inactive: 0.488.
In the case of GGUCCCUUUUGCUAAAACATT against Gm347, the z-score is reported as inactive: 0.529.
With CAGCUCUCUUGCUCAAACATT against Olfr815 the z-score was inactive: 0.811.
With “GGACUCAAGGACAAACAGUTT against 4632417D23” the z-score was inactive: 0.575.
In the case of GGUGGUUUGUGUUACAUUUTT against Ifnar2, the z-score is reported as inactive: 0.826.
For “GGCCAGGACCUAAAUACAATT against 4932417I16Rik”, the z-score was inactive: -1.47.
For GGUUAAAAGCAUCUCUAAGTT against Cd8b, the z-score was inactive: 0.305.
For GCAUUUAGAAGAAUCCGCCTT against Hao3, the z-score was inactive: -0.285.
For GCUGUCGUCUCGUAAUAGUTT against BC063749, the z-score was inactive: 1.33.
